Measurements from publication PMC12727705.

Chains of the proteins cited; added tags and fusions are not shown. Lines headed by an entry give the natural chain unless they say otherwise; changes in a name come on top.
UniProt V6CLN5: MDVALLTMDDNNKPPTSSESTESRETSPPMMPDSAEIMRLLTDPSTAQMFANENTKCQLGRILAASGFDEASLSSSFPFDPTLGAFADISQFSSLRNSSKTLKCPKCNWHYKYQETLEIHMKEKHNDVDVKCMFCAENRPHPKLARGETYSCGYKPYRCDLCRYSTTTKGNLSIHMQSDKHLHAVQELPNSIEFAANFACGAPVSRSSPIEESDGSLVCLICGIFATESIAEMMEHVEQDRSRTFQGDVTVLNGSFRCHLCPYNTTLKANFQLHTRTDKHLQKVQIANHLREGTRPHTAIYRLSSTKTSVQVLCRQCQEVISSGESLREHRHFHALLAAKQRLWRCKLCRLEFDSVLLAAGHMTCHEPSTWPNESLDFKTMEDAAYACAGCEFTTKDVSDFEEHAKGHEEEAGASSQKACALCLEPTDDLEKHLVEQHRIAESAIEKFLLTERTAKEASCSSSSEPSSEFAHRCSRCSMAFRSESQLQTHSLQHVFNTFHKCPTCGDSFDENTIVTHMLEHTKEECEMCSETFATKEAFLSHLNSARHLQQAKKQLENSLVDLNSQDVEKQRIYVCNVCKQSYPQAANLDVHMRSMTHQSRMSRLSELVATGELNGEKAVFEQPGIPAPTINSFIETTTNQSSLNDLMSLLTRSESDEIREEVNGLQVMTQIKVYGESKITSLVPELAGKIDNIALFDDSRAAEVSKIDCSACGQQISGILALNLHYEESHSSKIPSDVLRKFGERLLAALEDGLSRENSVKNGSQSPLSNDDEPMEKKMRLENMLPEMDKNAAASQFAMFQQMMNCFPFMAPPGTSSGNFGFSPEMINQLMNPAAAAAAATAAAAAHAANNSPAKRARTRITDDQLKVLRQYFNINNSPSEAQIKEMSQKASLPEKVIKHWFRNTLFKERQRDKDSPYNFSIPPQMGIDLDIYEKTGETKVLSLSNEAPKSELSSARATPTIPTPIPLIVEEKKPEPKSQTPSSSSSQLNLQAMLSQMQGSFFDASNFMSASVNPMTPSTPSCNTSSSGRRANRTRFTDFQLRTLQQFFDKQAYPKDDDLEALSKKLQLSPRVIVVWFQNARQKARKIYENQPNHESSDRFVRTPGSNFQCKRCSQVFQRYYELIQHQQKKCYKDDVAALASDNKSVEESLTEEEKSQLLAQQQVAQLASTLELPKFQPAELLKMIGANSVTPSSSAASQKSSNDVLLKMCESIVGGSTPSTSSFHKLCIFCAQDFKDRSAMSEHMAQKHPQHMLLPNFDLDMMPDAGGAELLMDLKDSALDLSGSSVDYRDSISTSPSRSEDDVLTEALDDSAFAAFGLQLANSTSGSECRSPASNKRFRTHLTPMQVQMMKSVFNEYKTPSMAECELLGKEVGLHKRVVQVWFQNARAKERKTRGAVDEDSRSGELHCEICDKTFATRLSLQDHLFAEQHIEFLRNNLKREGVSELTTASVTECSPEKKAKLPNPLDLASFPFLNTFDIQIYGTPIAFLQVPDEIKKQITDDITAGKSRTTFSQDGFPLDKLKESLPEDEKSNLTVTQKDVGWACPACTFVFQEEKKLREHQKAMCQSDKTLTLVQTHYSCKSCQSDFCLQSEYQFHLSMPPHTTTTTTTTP
UniProt Q23165: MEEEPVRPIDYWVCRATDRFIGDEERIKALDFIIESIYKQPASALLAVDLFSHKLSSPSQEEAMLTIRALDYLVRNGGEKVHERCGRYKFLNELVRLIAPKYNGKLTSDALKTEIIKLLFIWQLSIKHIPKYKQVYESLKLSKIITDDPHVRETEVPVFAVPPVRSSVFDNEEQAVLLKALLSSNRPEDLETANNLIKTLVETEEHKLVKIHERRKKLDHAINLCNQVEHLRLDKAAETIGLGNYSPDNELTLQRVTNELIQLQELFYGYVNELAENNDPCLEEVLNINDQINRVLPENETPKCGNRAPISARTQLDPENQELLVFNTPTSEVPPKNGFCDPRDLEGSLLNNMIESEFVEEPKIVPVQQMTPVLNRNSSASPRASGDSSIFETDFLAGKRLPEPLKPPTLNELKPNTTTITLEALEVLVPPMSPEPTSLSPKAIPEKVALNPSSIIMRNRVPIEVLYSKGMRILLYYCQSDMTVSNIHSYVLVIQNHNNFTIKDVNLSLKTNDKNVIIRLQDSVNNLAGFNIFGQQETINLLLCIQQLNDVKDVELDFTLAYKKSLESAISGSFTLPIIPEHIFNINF
UniProt Q9TW45: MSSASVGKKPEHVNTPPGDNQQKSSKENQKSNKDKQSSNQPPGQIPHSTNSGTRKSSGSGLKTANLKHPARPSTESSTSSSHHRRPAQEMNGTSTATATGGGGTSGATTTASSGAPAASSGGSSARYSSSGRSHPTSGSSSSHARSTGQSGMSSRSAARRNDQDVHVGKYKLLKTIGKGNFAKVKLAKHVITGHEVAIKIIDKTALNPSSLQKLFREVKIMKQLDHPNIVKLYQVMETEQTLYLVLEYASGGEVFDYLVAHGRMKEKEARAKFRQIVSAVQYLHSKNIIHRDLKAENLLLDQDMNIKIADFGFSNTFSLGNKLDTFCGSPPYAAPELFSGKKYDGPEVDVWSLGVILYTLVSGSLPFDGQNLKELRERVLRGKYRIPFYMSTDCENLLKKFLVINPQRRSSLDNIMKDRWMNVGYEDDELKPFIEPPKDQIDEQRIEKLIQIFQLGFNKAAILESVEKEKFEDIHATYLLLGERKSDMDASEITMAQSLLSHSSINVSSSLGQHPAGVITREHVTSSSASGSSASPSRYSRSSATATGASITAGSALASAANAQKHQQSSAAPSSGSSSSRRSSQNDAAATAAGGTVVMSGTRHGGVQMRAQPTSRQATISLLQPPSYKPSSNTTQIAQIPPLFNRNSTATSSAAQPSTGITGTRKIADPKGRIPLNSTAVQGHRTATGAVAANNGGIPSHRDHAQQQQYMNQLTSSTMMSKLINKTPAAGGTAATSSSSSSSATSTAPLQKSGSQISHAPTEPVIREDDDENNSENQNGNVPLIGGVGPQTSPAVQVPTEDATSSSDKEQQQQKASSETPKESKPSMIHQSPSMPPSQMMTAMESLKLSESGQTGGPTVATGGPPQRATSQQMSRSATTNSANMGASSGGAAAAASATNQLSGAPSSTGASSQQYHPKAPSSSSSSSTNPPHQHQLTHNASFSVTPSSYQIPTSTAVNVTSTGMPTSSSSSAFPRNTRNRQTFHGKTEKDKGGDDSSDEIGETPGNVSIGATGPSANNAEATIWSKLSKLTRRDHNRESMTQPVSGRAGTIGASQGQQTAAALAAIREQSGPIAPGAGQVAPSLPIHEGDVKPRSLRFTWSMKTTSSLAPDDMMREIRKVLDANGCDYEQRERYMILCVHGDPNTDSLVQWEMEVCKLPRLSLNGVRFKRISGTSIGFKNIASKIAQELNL
UniProt Q9U2X0: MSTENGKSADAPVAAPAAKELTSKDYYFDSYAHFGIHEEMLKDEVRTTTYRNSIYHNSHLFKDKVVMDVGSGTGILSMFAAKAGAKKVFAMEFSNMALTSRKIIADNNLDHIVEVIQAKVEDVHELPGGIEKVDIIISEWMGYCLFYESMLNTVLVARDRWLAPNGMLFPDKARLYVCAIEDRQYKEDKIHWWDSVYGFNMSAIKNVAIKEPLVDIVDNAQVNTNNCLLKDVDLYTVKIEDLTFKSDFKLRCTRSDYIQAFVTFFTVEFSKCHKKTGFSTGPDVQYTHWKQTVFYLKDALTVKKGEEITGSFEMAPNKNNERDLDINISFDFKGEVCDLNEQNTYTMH
UniProt Q9N4C3: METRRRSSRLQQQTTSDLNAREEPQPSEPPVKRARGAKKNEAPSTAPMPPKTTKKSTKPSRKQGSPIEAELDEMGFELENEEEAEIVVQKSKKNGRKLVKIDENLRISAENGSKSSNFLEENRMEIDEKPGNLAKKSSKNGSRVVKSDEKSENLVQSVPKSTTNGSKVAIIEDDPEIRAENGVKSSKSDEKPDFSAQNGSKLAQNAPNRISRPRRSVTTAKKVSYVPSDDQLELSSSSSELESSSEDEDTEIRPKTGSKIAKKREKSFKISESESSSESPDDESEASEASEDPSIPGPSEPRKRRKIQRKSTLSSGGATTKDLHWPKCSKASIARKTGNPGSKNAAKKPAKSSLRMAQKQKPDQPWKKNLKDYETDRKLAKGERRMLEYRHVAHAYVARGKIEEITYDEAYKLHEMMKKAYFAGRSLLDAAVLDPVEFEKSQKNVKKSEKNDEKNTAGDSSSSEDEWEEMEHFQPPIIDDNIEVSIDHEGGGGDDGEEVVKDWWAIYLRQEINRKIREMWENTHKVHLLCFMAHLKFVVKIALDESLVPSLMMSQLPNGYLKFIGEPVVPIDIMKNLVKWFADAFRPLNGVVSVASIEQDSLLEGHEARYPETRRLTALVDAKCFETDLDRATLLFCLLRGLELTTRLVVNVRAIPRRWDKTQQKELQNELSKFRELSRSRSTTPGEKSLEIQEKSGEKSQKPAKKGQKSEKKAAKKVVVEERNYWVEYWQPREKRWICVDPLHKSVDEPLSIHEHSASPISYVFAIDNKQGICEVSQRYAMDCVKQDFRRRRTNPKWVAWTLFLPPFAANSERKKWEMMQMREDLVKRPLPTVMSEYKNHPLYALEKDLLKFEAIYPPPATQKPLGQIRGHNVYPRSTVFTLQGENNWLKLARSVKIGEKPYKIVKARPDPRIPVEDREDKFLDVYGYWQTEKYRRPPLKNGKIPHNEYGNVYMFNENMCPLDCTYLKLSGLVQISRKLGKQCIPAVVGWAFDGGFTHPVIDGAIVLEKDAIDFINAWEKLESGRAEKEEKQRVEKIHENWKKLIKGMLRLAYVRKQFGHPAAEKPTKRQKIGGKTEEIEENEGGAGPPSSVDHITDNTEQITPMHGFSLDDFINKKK
UniProt P23678: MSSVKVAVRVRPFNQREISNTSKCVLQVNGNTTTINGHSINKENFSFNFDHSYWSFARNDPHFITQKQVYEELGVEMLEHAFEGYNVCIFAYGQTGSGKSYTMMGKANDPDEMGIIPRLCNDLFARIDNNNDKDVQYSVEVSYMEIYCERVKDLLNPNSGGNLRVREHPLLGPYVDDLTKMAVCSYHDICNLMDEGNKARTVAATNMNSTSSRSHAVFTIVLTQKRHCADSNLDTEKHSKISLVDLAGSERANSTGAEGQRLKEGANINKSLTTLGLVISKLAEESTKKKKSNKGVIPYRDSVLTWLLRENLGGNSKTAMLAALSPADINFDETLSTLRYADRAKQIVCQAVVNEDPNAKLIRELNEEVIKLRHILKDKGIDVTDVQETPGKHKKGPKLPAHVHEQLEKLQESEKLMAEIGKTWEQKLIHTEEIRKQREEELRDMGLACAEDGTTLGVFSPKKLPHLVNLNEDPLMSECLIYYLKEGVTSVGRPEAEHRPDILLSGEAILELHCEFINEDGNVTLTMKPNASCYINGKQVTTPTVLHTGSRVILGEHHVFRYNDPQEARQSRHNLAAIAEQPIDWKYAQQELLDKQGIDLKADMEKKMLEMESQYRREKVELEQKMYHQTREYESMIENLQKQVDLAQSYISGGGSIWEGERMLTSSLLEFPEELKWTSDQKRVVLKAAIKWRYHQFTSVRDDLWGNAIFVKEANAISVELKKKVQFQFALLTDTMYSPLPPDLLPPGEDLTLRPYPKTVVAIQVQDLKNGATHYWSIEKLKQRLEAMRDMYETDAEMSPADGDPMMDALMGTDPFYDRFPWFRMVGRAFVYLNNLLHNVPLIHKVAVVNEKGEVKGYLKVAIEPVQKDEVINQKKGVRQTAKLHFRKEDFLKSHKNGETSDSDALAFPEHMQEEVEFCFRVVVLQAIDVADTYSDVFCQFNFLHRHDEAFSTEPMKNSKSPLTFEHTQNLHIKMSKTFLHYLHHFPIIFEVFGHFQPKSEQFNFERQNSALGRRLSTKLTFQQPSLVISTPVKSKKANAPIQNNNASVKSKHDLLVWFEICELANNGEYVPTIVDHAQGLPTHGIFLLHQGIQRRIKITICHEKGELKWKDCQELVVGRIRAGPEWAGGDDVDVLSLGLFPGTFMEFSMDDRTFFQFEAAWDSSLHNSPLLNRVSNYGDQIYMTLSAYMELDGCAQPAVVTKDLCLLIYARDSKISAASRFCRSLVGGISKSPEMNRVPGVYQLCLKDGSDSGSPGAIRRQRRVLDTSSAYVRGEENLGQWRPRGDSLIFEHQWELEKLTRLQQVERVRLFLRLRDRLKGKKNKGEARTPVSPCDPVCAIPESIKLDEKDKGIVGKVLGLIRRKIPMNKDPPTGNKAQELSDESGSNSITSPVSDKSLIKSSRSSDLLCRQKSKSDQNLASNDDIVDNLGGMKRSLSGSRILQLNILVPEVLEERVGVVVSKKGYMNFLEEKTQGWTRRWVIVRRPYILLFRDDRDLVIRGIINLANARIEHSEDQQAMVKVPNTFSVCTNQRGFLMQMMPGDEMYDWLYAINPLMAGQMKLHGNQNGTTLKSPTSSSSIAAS

Target: T1, DAF-16::TurboID::mNeongreen::3xFLAG (C. elegans) (UniProt O16850)
T1 sequence: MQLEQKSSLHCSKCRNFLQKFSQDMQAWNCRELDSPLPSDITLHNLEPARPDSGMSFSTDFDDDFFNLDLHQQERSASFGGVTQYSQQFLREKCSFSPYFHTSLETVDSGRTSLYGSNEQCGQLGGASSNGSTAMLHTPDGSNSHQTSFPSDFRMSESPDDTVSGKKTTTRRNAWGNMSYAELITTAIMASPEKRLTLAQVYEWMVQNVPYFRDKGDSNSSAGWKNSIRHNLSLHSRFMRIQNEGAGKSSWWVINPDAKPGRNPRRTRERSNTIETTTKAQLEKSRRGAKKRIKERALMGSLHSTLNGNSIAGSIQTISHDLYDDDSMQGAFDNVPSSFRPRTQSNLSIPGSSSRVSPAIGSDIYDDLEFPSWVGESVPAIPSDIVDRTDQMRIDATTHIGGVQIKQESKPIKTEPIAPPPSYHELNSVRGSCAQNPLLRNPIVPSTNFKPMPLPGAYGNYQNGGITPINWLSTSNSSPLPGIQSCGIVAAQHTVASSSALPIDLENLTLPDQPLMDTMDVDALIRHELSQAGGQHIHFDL
Experiment: proximity labelling; TurboID fused to endogenous DAF-16 in living C. elegans, wild-type (cytoDAF-16) or daf-2(e1370) (nucDAF-16) background; L4/young adults, 1 mM biotin in M9 for 2 h at 21 °C; biotinylated proteins affinity purified on streptavidin and identified by mass spectrometry; control: wild type without …

- binding: binds
Molecule: TMYB-1 (C. elegans (endogenous in C. elegans))

- binding: binds
Molecule: PBRM-1 (C. elegans (endogenous in C. elegans))

- binding: binds
Molecule: ZFH-2 (from UniProt V6CLN5 1-1615)

- binding: binds
Molecule: APT-9 (from UniProt Q23165)

- binding: binds
Molecule: SWSN-1 (C. elegans (endogenous in C. elegans))

- binding: binds
Molecule: PHD-10 (C. elegans (endogenous in C. elegans))

- binding: binds
Molecule: SWSN-3 (from UniProt Q9BL39)

- binding: binds
Molecule: MTCL-1 (C. elegans (endogenous in C. elegans))

- binding: binds
Molecule: PAR-1 (from UniProt Q9TW45 1-1192) (enzyme)

- binding: binds
Molecule: SWSN-4 (from UniProt G5EF53 1-1474)

- binding: binds
Molecule: SEL-13 (from UniProt Q22139)

- binding: binds
Molecule: PRMT-1 (from UniProt Q9U2X0 1-348) (enzyme)

- binding: binds
Molecule: XPC-1 (from UniProt Q9N4C3)

- binding: binds
Molecule: UNC-104 (from UniProt P23678 1-1584)

- binding: binds
Molecule: SET-26 (from UniProt Q9U263 1-1645) (enzyme)

- binding: binds
B1: SGK-1 (enzyme, UniProt Q2PJ68 1-463)
chain: MGSMYYNESRMVRKDEVTCNVIIGDDKKTVVYALRIGNGPIMQKTFEEYERFFTTEKDMIPATIFTAPKKKFLQADSKFYEKRRVWILVISQHLVDNNLRSEDVRRFFHLESPDDDENNVDLGPSERKTATANDFDYLTTIGKGSFGRVYQVRHKETKKIYAMKILSKEHIRKKNEVKHVMAERNVLINNFKHPFLVSLHFSFQNKEKLYFVLDHLNGGELFSHLQREKHFSESRSRFYAAEIACALGYLHEKNIIYRDLKPENLLLDDKGYLVLTDFGLCKEDMQGSKTTSTFCGTPEYLAPEIILKKPYDKTVDWWCLGSVLYEMIFGLPPFYSKDHNEMYDKIINQPLRLKHNISVPCSELITGLLQKDRSKRLGHRNDFRDIRDHPFFLPVDWDKLLNRELKAPFIPKVKNAMDTSNISKEFVEIQIDPSSLAPQQLAVTHRDHDFENFTFVDTNRVLV

- binding: binds
B2: SIR-2.1 (enzyme, UniProt Q21921 1-607)
chain: MSRDSGNDSEVAVTHGEVQEITEENPEIGSMHITQETDISDAPETNTDSSRQRTESTTSVSSESWQNNDEMMSNLRRAQRLLDDGATPLQIIQQIFPDFNASRIATMSENAHFAILSDLLERAPVRQKLTNYNSLADAVELFKTKKHILVLTGAGVSVSCGIPDFRSKDGIYARLRSEFPDLPDPTAMFDIRYFRENPAPFYNFAREIFPGQFVPSVSHRFIKELETSGRLLRNYTQNIDTLEHQTGIKRVVECHGSFSKCTCTRCGQKYDGNEIREEVLAMRVAHCKRCEGVIKPNIVFFGEDLGREFHQHVTEDKHKVDLIVVIGSSLKVRPVALIPHCVDKNVPQILINRESLPHYNADIELLGNCDDIIRDICFSLGGSFTELITSYDSIMEQQGKTKSQKPSQNKRQLISQEDFLNICMKEKRNDDSSDEPTLKKPRMSVADDSMDSEKNNFQEIQKHKSEDDDDTRNSDDILKKIKHPRLLSITEMLHDNKCVAISAHQTVFPGAECSFDLETLKLVRDVHHETHCESSCGSSCSSNADSEANQLSRAQSLDDFVLSDEDRKNTIHLDLQRADSCDGDFQYELSETIDPETFSHLCEEMRI

- binding: binds
B3: OSM-3 (protein, UniProt P46873 1-699)
chain: MAESVRVAVRCRPFNQREKDLNTTLCVGMTPNVGQVNLNAPDGAAKDFTFDGAYFMDSTGEQIYNDIVFPLVENVIEGYNGTVFAYGQTGSGKTFSMQGIETIPAQRGVIPRAFDHIFTATATTENVKFLVHCSYLEIYNEEVRDLLGADNKQKLEIKEQPDRGVYVAGLSMHVCHDVPACKELMTRGFNNRHVGATLMNKDSSRSHSIFTVYVEGMTETGSIRMGKLNLVDLAGSERQSKTGATGDRLKEATKINLSLSALGNVISALVDGKSKHIPYRDSKLTRLLQDSLGGNTKTIMIACVSPSSDNYDETLSTLRYANRAKNIKNKPTINEDPKDALLREYQEEIARLKSMVQPGAVGVGAPAQDAFSIEEERKKLREEFEEAMNDLRGEYEREQTSKAELQKDLESLRADYERANANLDNLNPEEAAKKIQQLQDQFIGGEEAGNTQLKQKRMKQLKEAETKTQKLAAALNVHKDDPLLQVYSTTQEKLDAVTSQLEKEVKKSKGYEREIEDLHGEFELDRLDYLDTIRKQDQQLKLLMQIMDKIQPIIKKDTNYSNVDRIKKEAVWNEDESRWILPEMSMSRTILPLANNGYMQEPARQENTLLRSNFDDKLRERLAKSDSENLANSYFKPVKQINVINKYKSDQKLSTSKSLFPSKTPTFDGLVNGVVYTDALYERAQSAKRPPRLASLNPK

- binding: binds
B4: RFC-4 (protein, UniProt P53016 1-334)
chain: MEEPMEVDNKRPKVLTWTEKYRPKTLDDIAYQDEVVTMLKGALQGRDLPHLLFYGPPGTGKTSAALAFCRQLFPKNIFHDRVLDLNASDERGIAVVRQKIQSFSKSSLGHSHREDVLKLKIIILDEVDAMTREAQAAMRRVIEDFSKTTRFILICNYVSRLIPPVVSRCAKFRFKSLPAEIQVQRLRTICDAEGTPMSDDELKQVMEYSEGDLRRAVCTLQSLAPILKSGDDNARNCYLRGSSDSLLISNVCKSILTADVPQIIALTKDITKSCTGVAFIRRCFQQLMDEDVINDENIGVMGKLVATCEKRILDGCDLENNLLDFLLTLRETIQ

- binding: binds
B5: Grainyhead 1/GRH-1 (protein, UniProt G5EDF0 1-563)
chain: MSFQLDQSTSVIKTAPPGRLEFKNEPIDIASSNIQDLAKMQTLDGYYQQTSLQLPQSQQYHRMYENVYNNQQILYAQTQNFQYPSTLLTNGSLAQTEWRGQQMDTSAYSNTGYSRSSTSQQPQYTQQVTENERIVYKPVDMPSPVDSGIGGDISILNPKEEFFTSADGGSMLERSSERTLSHRDSPLVIPKLYNNLGFQYVLEAPISTSVRRDDDRMTYVNKGQFYTVSLEYTPDLNKCLKSQTVKSQLMVVFREDKTYEEEIKTWQSWHARQHVSKQRILEIDSKNSSGMIGQIEEIGNNAVQFYWNPSDPSGVRISIAVQCLSTDFSTQKGVKGLPLHVQIDTYDGENDKVPFHRGYCQIKVFCDKGAERKLRDEDKRAQKRKVQEYTAGALPGGRKKSDGEYHDQCERSEFYHMRELDKPAALFIAPEEFEPRYVDSTSLSFDMSEIEPIPTKRPRTSERIMLYVRKRDEQIYQPLHVVPASLSGLALAIANKFGADPDKMSGVYKRCAKGITVKVDDEMLRLYCNEDTFIIDVEHATDGSTAATLIEVAPTNPNSYSNS

- binding: binds
B6: SYD-1 (protein, UniProt Q86NH1 1-987)
chain: MLISTSLKFLTMLTSNGFGGTNPPKGMPYPPTYLYTEEPQNECCCCWLCRLLCCCSPVDQTASRSRMNASQPPPGGGGRLPDEVFRKITAVDQGQSTLTQSGIQGLSARTLSSEPRGDLVFQLVEIIKKPGQSLGLYLREGNGKDRSDGVFVSRFGDNSELAKYGEVMRPGDEILTINNVEVSMMSIDDVVLILSIPRRLLLRIRYSKSMRHEIISSRSRESERPVVVFHKYDDRRDSETNAPILSQPTSTANTWLGKKSRQQMEEMRNATTSSTLRTHASTSSPRNHFAPRLVNGHSHSIGVPSASTTSHDHQYQRFASEPSDSVSRTARVPPPRLASATVRRTESFNSAPGVSTSAPMYTLPRSSTAVPPPDILGSIPYSARDPLMRSSADLPYDPMTGRLSSSVPTDPLLSRSLCSPILPRTLRQANDSNKSNSLPRRRIMTGGRNVKWRNDVVSTSDLCGEESDGAISAPEYSSPPFSRLTQQQQFRLSNGSPGRTVNDIFSAAEYRNWAGPYDPRGMYGPFPPGQRATRWSHTYGEQRAPRTSSLPGRTVLAQSLVGSPVLPRHPPPIVQDRPSAVFDRYHVSPLMNRRAPLRAAGPGINVDRLSVSSLTGILYVHIVEGRGLKIPEKQKGLTEEMYCVLEVDEQHRARTGVSTIEQKFKWRETFHIDVVNATVSNFFVYSWHPQFRHKLCHKGSLKLLEAFVVDQLNDDRVFALNLEPRGQLIVRIGFHDLQAVFRRTVNPRLNGVFGISLSRLVQRERRDTPIVLTRLIQEIEKRGVDYSGLYVLCGSVEKKKMLRAELESNPLGTELAAESIPDTNVIACLIKDFLRELPEPLISPQIHGMLLEAASVALPNDVQTNRHLVLKIIDCLQLSAKNCLLLVLDHLSTVLCSSPHNGLTPTRLSLIFAPLLFFCLDTFSPYTISPTSKMAAVRTLDINQASSSLQMILSIWPSRVNSESGSDSPATTCQKGGVIAYVSESQC

- binding: binds
B7: HCF-1 (protein, UniProt G5EC23 1-782)
chain: MDEDVGLEATNYSRGDESRSEEQEKNVVRWRIVQQSTGPNPKPRHGHRAVVLKELIVIFGGGNEGMIDELHAYNTQKREWTAPQCCGDVPTPAAAFGAISLGNKIYRFGGMTEYGKYTNDLYELQSTRWEWRRLNPRVHSNGHLPCPRIGHSFVVSQKSQKAYVFGGLSNDLNDPKRNVPHYLDDLYVINLSGPQHLIWEKLNATGPGPISRESHTAVIYEKDSISRMVVYGGMNGVRLGDLWYLNLNTLHWTEIKFDDPRTGIPPMPRSLHSSVLIGDKMFVYGGWVPLLEHASTEQQTEKEWKCTSSLGCWNITEDRWVPLHLYCSDEDTIPRGRAGHCAAAVGDRMYIWSGRDGYRKAWSNQVCCRDMWLLDTILPEQPGKVQLGRAGFNSLEISWPIVQGASGYFLQIGFGDAKEQSVSPIKRATTSPRKQPSIVPPSQKETEQSPKKPQGTAPSIISTQGTTYTAPADPKPATDEGGLPQDLFEDTEKNETASPKRSNDAQSADSSTCEQKKTDESGLEEDSEKDQKPSDAGETDEMKEENGDDDLPWFDVGIIDKATINVTHYFNDRQQSLEKQLNDLIDHNAFKCVNDSVFTTEDKIPLINGQSYRFRVSAINGLGKGAWSETASCKTCVPGYPSAPSSIRITKSHEGAQLTWEPPSNTNISGKIIEYSVYLAVKNQSANSADSQLAFMRVYCGPQADCQVLQSNLGTAFVDQTNKPAIIFRIAARNEKGYGPATQVRWLQDQQKIPVRTNYPNNSGFIYQQHGGQQKRARFDHQ

These are yes or no findings as the source states them, for the method shown. In cells and extracts the contact can be indirect. A yes stands for co-enrichment or nearness to the bait. Other partners may have been found. Sequences can lack the tags named with a protein. One block for each molecule: values may come before it.
